In the supplement of paper PMC8728848:
The other results are listed elsewhere or left out.

Tests used:
Test in all cases: glycan array binding signal (z-score within array); higher = stronger binding
Conditions in all cases: glycan notation: IUPAC condensed, linker removed
Fuc(a1-2)Gal = target: Fuc(a1-2)Gal
Procedure, shortened: (§1)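 Glycan array data came from 3228 arrays in the Consortium for Functional Glycomics database, and only arrays with an available protein sequence were kept. Glycan names were put into IUPAC-condensed notation, and columns mapping to the same glycan were averaged. The binding signal is a within-array Z-score, averaged across arrays of one protein sequence run at different concentrations or buffers and across linkers. A negative Z-score can be read as non-binding.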

Fuc(a1-2)Gal(b1-3)GalNAc = target: Fuc(a1-2)Gal(b1-3)GalNAc
Procedure, shortened: as §1

[1] = target: Fuc(a1-2)Gal(b1-3)GalNAc(a1-3)[Fuc(a1-2)]Gal(b1-4)Glc
Procedure, shortened: as §1

[2] = target: Fuc(a1-2)Gal(b1-3)GalNAc(a1-3)[Fuc(a1-2)]Gal(b1-4)GlcNAc
Procedure, shortened: as §1

[3] = target: Fuc(a1-2)Gal(b1-3)GalNAc(b1-3)Gal
Procedure, shortened: as §1

[4] = target: Fuc(a1-2)Gal(b1-3)GalNAc(b1-3)Gal(a1-4)Gal(b1-4)Glc
Procedure, shortened: as §1

[5] = target: Fuc(a1-2)Gal(b1-3)GalNAc(b1-4)[Neu5Ac(a2-3)]Gal(b1-4)Glc
Procedure, shortened: as §1

Fuc(a1-2)Gal(b1-3)GlcNAc = target: Fuc(a1-2)Gal(b1-3)GlcNAc
Procedure, shortened: as §1

[6] = target: Fuc(a1-2)Gal(b1-3)GlcNAc(b1-2)Man(a1-3)[Fuc(a1-2)Gal(b1-3)GlcNAc(b1-2)Man(a1-6)]Man(b1-4)GlcNAc(b1-4)GlcNAc
Procedure, shortened: as §1

[7] = target: Fuc(a1-2)Gal(b1-3)GlcNAc(b1-2)Man(a1-3)[Fuc(a1-2)Gal(b1-3)GlcNAc(b1-2)Man(a1-6)]Man(b1-4)GlcNAc(b1-4)[Fuc(a1-6)]GlcNAc
Procedure, shortened: as §1

[8] = target: Fuc(a1-2)Gal(b1-3)GlcNAc(b1-3)Gal(b1-4)Glc
Procedure, shortened: as §1

[9] = target: Fuc(a1-2)Gal(b1-3)GlcNAc(b1-3)GalNAc
Procedure, shortened: as §1

[10] = target: Fuc(a1-2)Gal(b1-3)GlcNAc(b1-3)[Fuc(a1-2)Gal(b1-3)GlcNAc(b1-6)]GalNAc
Procedure, shortened: as §1

[11] = target: Fuc(a1-2)Gal(b1-3)GlcNAc(b1-3)[Gal(b1-4)GlcNAc(b1-6)]Gal(b1-4)Glc
Procedure, shortened: as §1

[12] = target: Fuc(a1-2)Gal(b1-3)GlcNAc(b1-3)[Neu5Ac(a2-6)Gal(b1-4)GlcNAc(b1-6)]Gal(b1-4)Glc
Procedure, shortened: as §1

[13] = target: Fuc(a1-2)Gal(b1-3)GlcNAc6S
Procedure, shortened: as §1

[14] = target: Fuc(a1-2)Gal(b1-3)[Fuc(a1-4)]GlcNAc
Procedure, shortened: as §1

[15] = target: Fuc(a1-2)Gal(b1-3)[Fuc(a1-4)]GlcNAc(b1-2)Man(a1-3)[Fuc(a1-2)Gal(b1-3)[Fuc(a1-4)]GlcNAc(b1-2)Man(a1-3)]Man(b1-4)GlcNAc(b1-4)GlcNAc
Procedure, shortened: as §1

[16] = target: Fuc(a1-2)Gal(b1-3)[Fuc(a1-4)]GlcNAc(b1-2)Man(a1-3)[Fuc(a1-2)Gal(b1-3)[Fuc(a1-4)]GlcNAc(b1-2)Man(a1-6)]Man(b1-4)GlcNAc(b1-4)[Fuc(a1-6)]GlcNAc(b1-4)[Fuc(a1-6)]GlcNAc
Procedure, shortened: as §1

[17] = target: Fuc(a1-2)Gal(b1-3)[Fuc(a1-4)]GlcNAc(b1-3)[Fuc(a1-3)[Gal(b1-4)]GlcNAc(b1-6)]Gal(b1-4)Glc
Procedure, shortened: as §1

[18] = target: Fuc(a1-2)Gal(b1-3)[Fuc(a1-4)]GlcNAc(b1-3)[Gal(b1-4)GlcNAc(b1-6)]Gal(b1-4)Glc
Procedure, shortened: as §1

Fuc(a1-2)Gal(b1-4)Glc = target: Fuc(a1-2)Gal(b1-4)Glc
Procedure, shortened: as §1

Fuc(a1-2)Gal(b1-4)Glc6S = target: Fuc(a1-2)Gal(b1-4)Glc6S
Procedure, shortened: as §1

Fuc(a1-2)Gal(b1-4)GlcNAc = target: Fuc(a1-2)Gal(b1-4)GlcNAc
Procedure, shortened: as §1

[19] = target: Fuc(a1-2)Gal(b1-4)GlcNAc(b1-2)Man
Procedure, shortened: as §1

[20] = target: Fuc(a1-2)Gal(b1-4)GlcNAc(b1-2)Man(a1-3)[Fuc(a1-2)Gal(b1-4)GlcNAc(b1-2)Man(a1-6)]Man(b1-4)GlcNAc(b1-4)GlcNAc
Procedure, shortened: as §1

[21] = target: Fuc(a1-2)Gal(b1-4)GlcNAc(b1-2)Man(a1-3)[Fuc(a1-2)Gal(b1-4)GlcNAc(b1-2)Man(a1-6)]Man(b1-4)GlcNAc(b1-4)[Fuc(a1-6)]GlcNAc
Procedure, shortened: as §1

[22] = target: Fuc(a1-2)Gal(b1-4)GlcNAc(b1-2)[Fuc(a1-2)Gal(b1-4)GlcNAc(b1-4)]Man(a1-3)[Fuc(a1-2)Gal(b1-4)GlcNAc(b1-2)Man(a1-6)]Man(b1-4)GlcNAc(b1-4)GlcNAc
Procedure, shortened: as §1

[23] = target: Fuc(a1-2)Gal(b1-4)GlcNAc(b1-3)Gal(b1-4)GlcNAc
Procedure, shortened: as §1

[24] = target: Fuc(a1-2)Gal(b1-4)GlcNAc(b1-3)Gal(b1-4)GlcNAc(b1-2)Man(a1-3)[Fuc(a1-2)Gal(b1-4)GlcNAc(b1-3)Gal(b1-4)GlcNAc(b1-2)Man(a1-6)]Man(b1-4)GlcNAc(b1-4)GlcNAc
Procedure, shortened: as §1

B1: truncCC1G-10077 (Coprinopsis cinerea) (protein)
chain: MHHHHHHHHPLPSPGPGWVLIQNGGTGKFLCSTPSGDIGTADGPETVYDYSVQWRFIQREYTGVYHVVNRATGAYLRQIGTSMPSIGLAEENDDELKDWWMLETYDNSEIGLASIISRWTGNVLDHYGGVSVQALDNNTENSYRSWAIIPARDWLTSFSLVNGQGGLCLAAQYAREETRLSTTANVNDFHAQWVFRKPSGSSGYTIQNKYNNHYVGGTSARWELVVCCNKYFGIRNTSTQKYLAIEDGQVTFQDQDMTDRKQCWELCSGRATDTSGNDYDLIYMDDDLLEVMIPWVGDKQGDLKHYIEKRATKKPPKDKGGWQLPAAGLIKKPKFNDIRQLLQELIEQWEWDVVNEEREQIQTLVSIDEAEARRLLGRRPHPDIVAAYQRSRSSTLFRIDRQGYFNIAGDRYVNIQGQYGDDSYFHIALPVGVRFGREQIRRFLRDSLDRSTSVTITPTTCKPPSGGPDYNRDPDSDGDNSWIKWTIAVVGTSAIKHSEL
- glycan array binding signal (z-score) (Fuc(a1-2)Gal): -1.02
- glycan array binding signal (z-score) (Fuc(a1-2)Gal(b1-3)GalNAc): -0.437
- glycan array binding signal (z-score) [1]: -0.99
- glycan array binding signal (z-score) [2]: 1.23
- glycan array binding signal (z-score) [3]: -0.469
- glycan array binding signal (z-score) [4]: -0.396
- glycan array binding signal (z-score) [5]: -0.275
- glycan array binding signal (z-score) (Fuc(a1-2)Gal(b1-3)GlcNAc): -0.176
- glycan array binding signal (z-score) [6]: 3.72
- glycan array binding signal (z-score) [7]: -0.456
- glycan array binding signal (z-score) [8]: -0.856
- glycan array binding signal (z-score) [9]: 0.268
- glycan array binding signal (z-score) [10]: 1.98
- glycan array binding signal (z-score) [11]: -0.333
- glycan array binding signal (z-score) [12]: -0.768
- glycan array binding signal (z-score) [13]: 0.74
- glycan array binding signal (z-score) [14]: -1.07
- glycan array binding signal (z-score) [15]: 0.415
- glycan array binding signal (z-score) [16]: 0.247
- glycan array binding signal (z-score) [17]: -0.929
- glycan array binding signal (z-score) [18]: 0.308
- glycan array binding signal (z-score) (Fuc(a1-2)Gal(b1-4)Glc): -0.216
- glycan array binding signal (z-score) (Fuc(a1-2)Gal(b1-4)Glc6S): 0.121
- glycan array binding signal (z-score) (Fuc(a1-2)Gal(b1-4)GlcNAc): -0.991
- glycan array binding signal (z-score) [19]: 0.411
- glycan array binding signal (z-score) [20]: 1.35
- glycan array binding signal (z-score) [21]: 0.64
- glycan array binding signal (z-score) [22]: 1.51
- glycan array binding signal (z-score) [23]: -0.544
- glycan array binding signal (z-score) [24]: -0.136
